These results are taken from the supplement of paper PMC10060354, “Discovery of a small molecule ligand of FRS2 that inhibits invasion and tumor growth” (Cellular Oncology, 2022).

Sequences of proteins named here, by UniProt entry; tags and fusion partners are left off. A change or cut given only in a name is not applied to a line headed by its entry.
UniProt Q53HL2: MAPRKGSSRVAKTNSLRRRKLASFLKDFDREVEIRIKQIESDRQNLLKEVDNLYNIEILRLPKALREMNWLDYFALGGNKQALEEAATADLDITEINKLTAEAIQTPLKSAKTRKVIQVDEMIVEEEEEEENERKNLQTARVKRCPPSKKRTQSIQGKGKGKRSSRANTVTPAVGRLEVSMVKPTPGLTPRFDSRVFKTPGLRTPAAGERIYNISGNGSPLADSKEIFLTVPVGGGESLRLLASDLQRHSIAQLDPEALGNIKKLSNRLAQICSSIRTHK
UniProt Q5T6F2: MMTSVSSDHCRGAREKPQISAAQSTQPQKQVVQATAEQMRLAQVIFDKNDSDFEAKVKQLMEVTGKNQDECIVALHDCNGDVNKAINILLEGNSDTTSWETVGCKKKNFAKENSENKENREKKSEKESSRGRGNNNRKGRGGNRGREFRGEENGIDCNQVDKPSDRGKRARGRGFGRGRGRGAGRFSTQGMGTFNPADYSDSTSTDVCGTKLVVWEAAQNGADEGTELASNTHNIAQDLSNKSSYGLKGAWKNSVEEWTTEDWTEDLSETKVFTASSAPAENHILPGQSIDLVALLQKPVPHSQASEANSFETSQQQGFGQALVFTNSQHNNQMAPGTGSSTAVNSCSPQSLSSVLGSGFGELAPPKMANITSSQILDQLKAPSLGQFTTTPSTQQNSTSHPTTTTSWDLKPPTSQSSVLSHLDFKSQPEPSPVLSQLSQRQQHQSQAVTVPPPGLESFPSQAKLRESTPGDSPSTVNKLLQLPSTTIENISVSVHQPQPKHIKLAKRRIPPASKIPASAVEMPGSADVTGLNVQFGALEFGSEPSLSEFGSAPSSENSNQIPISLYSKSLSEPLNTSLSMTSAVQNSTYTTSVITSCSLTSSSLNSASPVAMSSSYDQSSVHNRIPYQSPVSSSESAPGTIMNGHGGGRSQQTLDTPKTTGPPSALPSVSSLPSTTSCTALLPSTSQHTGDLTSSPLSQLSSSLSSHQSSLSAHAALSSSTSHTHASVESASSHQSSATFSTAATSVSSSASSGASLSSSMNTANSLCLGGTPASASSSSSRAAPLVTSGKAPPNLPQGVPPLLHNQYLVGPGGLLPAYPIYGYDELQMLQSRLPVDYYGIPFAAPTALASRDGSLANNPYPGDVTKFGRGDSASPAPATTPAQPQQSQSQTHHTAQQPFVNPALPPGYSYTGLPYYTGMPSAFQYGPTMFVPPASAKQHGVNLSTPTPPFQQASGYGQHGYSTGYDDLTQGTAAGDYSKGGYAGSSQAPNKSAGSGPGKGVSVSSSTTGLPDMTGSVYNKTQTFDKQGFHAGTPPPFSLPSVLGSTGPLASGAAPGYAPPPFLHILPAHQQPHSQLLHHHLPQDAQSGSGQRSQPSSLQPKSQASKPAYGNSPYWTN
UniProt Q5HYK3: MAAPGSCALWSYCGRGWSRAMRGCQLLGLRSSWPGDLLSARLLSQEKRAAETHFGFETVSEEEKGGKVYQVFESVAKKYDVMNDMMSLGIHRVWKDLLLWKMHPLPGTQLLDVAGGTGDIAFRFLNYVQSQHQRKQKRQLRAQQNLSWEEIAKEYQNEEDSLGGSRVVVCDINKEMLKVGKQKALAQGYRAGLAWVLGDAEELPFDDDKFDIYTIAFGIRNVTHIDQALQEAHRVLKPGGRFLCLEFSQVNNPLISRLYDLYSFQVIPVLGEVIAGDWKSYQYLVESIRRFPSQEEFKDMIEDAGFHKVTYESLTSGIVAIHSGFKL
UniProt Q9P0S3: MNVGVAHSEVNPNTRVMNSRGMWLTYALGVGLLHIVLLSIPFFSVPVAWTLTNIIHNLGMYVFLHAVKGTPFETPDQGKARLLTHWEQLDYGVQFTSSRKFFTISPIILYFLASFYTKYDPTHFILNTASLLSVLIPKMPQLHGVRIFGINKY
UniProt Q8IZ52: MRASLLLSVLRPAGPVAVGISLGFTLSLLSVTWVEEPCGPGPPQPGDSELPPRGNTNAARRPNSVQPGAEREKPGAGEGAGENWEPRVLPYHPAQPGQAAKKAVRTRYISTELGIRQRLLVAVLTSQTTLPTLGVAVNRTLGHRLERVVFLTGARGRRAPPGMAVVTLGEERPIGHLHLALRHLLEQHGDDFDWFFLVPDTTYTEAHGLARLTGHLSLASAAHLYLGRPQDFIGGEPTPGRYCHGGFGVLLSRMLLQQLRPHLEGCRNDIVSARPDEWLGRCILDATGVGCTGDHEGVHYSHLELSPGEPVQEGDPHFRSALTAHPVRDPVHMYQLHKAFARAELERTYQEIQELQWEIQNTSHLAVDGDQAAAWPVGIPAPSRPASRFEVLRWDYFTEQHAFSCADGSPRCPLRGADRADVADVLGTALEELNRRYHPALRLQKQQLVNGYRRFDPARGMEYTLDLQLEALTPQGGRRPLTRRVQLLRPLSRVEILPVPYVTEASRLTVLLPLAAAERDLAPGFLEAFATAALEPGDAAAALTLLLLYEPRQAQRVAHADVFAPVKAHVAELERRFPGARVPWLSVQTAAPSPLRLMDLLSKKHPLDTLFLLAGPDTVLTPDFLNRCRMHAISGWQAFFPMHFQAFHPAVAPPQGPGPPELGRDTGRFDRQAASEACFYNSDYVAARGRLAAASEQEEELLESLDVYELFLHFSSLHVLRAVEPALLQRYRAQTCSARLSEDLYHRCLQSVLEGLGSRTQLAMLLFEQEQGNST
UniProt Q5T013: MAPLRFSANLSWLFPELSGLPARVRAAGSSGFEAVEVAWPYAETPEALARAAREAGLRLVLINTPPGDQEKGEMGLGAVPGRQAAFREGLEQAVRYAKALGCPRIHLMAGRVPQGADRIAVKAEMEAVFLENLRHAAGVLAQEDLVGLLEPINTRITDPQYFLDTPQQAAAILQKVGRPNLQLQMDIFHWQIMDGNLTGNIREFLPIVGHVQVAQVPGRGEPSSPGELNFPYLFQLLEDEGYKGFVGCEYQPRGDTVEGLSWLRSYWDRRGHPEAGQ
UniProt Q70Z53: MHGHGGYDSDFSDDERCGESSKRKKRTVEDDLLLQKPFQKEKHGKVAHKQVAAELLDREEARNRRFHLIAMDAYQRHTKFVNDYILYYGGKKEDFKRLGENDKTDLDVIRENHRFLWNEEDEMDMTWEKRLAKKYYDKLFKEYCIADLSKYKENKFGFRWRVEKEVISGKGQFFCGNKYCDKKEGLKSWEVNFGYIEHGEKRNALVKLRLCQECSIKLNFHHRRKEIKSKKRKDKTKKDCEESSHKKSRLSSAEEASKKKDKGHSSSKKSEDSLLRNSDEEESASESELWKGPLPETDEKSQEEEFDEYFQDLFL
UniProt Q7L8S5: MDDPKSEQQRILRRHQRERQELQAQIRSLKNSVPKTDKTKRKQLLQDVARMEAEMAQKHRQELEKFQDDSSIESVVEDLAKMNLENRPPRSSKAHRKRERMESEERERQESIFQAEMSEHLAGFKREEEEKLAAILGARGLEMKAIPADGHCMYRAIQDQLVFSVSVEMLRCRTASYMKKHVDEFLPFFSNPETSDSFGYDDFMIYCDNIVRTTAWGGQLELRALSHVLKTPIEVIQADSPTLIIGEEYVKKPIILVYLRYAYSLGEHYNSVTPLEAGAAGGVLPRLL
UniProt P09038, whole entry: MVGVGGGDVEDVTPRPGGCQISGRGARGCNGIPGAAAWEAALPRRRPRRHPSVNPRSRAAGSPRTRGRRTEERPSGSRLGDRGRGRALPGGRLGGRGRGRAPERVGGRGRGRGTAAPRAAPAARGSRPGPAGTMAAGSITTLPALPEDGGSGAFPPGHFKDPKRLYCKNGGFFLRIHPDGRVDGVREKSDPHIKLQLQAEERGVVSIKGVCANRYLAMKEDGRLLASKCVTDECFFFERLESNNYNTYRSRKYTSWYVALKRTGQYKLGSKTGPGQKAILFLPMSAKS
UniProt Q6ZVM7: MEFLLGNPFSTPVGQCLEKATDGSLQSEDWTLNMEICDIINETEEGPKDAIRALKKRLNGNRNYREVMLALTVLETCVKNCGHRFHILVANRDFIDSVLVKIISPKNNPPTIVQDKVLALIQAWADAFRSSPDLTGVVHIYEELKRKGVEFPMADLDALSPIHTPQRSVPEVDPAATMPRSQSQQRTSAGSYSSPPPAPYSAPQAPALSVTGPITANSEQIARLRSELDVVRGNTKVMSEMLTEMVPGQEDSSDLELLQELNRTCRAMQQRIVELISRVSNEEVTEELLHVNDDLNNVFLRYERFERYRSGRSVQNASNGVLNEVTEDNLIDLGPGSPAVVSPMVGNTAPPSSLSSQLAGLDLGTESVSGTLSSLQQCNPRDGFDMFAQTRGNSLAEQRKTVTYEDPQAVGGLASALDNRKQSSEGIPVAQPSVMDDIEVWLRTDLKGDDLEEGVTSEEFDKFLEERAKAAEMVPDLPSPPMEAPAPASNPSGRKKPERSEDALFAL
UniProt Q14106: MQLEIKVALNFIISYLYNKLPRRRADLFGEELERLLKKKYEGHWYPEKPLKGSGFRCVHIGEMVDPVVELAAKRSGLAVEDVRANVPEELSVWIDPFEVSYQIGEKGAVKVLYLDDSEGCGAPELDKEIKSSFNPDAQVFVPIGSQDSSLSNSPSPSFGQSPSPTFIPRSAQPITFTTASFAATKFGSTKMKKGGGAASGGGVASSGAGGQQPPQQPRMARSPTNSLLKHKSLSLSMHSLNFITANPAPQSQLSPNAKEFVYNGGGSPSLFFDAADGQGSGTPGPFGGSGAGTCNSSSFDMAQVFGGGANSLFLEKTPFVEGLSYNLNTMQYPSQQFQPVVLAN
UniProt P03886, whole entry: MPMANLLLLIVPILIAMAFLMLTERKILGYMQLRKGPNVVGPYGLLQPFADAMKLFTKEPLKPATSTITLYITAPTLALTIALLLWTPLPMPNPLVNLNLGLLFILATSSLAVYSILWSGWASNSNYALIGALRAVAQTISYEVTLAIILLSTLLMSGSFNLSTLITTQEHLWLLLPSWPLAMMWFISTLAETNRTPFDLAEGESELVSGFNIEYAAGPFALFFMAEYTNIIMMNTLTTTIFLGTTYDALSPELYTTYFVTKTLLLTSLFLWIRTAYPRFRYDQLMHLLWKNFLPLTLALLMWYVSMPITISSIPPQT
UniProt P41221: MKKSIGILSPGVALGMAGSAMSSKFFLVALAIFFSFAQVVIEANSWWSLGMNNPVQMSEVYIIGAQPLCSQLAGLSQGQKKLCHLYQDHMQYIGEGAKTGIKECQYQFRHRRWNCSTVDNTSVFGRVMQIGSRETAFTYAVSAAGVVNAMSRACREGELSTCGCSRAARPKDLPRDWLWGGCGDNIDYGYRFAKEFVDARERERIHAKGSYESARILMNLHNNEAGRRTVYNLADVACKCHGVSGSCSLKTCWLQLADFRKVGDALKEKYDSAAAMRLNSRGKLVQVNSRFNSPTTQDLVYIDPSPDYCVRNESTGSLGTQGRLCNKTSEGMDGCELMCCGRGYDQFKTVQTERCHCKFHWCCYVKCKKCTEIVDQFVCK
UniProt Q9Y232: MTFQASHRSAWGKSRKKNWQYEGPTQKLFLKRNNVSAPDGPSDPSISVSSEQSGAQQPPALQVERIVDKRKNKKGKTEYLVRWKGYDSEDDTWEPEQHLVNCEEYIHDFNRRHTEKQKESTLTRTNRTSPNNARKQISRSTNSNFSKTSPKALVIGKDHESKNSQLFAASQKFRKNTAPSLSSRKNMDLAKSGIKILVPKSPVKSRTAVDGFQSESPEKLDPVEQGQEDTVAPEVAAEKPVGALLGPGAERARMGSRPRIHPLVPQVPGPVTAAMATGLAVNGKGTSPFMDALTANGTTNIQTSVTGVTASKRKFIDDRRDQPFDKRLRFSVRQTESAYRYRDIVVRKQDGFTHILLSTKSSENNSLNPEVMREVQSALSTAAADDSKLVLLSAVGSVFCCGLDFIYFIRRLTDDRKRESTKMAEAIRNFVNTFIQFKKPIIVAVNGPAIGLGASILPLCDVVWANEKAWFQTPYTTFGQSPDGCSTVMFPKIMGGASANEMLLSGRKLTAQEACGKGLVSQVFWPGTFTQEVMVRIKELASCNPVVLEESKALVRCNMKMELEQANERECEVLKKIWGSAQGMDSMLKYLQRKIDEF
UniProt Q9P0M6, whole entry: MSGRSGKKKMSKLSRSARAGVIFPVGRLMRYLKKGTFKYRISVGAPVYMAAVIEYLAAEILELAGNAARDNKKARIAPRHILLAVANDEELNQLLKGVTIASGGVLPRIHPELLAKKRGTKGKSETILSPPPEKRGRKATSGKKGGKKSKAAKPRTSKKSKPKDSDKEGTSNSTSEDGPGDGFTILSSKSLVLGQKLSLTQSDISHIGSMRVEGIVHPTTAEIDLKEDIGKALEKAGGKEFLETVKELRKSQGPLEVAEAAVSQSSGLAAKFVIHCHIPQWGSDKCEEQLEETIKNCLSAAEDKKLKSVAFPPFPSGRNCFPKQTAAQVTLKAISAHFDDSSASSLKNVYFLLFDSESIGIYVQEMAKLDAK
UniProt Q9NVP2, whole entry: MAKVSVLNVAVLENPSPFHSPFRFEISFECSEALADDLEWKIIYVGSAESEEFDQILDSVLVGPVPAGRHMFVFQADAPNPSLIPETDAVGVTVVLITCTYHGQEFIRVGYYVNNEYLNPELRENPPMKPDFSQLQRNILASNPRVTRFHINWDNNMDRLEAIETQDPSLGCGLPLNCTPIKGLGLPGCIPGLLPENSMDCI

Compound in this experiment: [O-][N+](C(C1=C(C(O)=C2)NC(C(C=C3)=CC=C3Cl)C4C1C=CC4)=C2Cl)=O
Nature of the experiment: melting temperature shift (compound 7 minus DMSO); higher = compound stabilises the protein. To be noted: 10 µM. On the procedure:
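Thermal proteome profiling (TMT mass spectrometry) in intact DAOY medulloblastoma cells or DAOY lysates treated with 10 µM compound 7 or DMSO, heated at 10 temperatures from 40.5 to 73.8 °C for 3 min. Melting curves were fitted with the Bioconductor TPP package, and the melting point difference between compound and vehicle is reported per protein (single curve per condition).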

Where [1] appears, read: system: intact DAOY cells, treatment time: 90 min, 37 °C.
Where [2] appears, read: system: DAOY cell lysate, treatment time: 20 min, 4 °C.

Single values are uncertain, as repeats are few or missing.

For the target TMEM87B (UniProt Q96K49), the melting temperature shift under setting [1] was determined as 4.08 °C. Regarding UniProt Q53HL2, the melting temperature shift is 0.791 °C under setting [2] and 1.23 °C under setting [1].

Regarding UBAP2 (UniProt Q5T6F2), the melting temperature shift under setting [2] came out at 2.64 °C. Take NECTIN2 (UniProt Q92692): the melting temperature shift by setting is: under setting [2], 0.321 °C; under setting [1], -0.0321 °C. Consider CIZ1 (UniProt Q9ULV3), for which the melting temperature shift by setting is: under setting [2], 0.918 °C; under setting [1], -1.96 °C. Consider COQ5 (UniProt Q5HYK3), for which the melting temperature shift was -1.87 °C under setting [2] and -1.9 °C under setting [1]. As to UniProt P22090, the melting temperature shift under setting [1] is -0.728 °C.

For the target BYSL (UniProt Q13895), the melting temperature shift reads like this: under setting [2], -0.271 °C; under setting [1], 0.142 °C. Regarding UniProt Q9P0S3, the melting temperature shift under setting [1] is -0.423 °C. Turning to UniProt Q92556, the melting temperature shift under setting [1] was 2.37 °C.

As to CHPF (UniProt Q8IZ52), the melting temperature shift by setting is: under setting [2], -2.25 °C; under setting [1], 0.101 °C. For HYI (UniProt Q5T013), the melting temperature shift under setting [2] was -0.862 °C and the melting temperature shift under setting [1] is 3.06 °C. For the target SMARCC2 (UniProt Q8TAQ2), the melting temperature shift is 0.751 °C under setting [2] and -0.429 °C under setting [1]. As to UniProt Q86SE5, the melting temperature shift under setting [1] is -1.19 °C. On to FRA10AC1 (UniProt Q70Z53), for which the melting temperature shift was -1.92 °C under setting [2] and -0.494 °C under setting [1]. Consider UniProt Q7L8S5, for which the melting temperature shift runs as follows: under setting [2], -0.361 °C; under setting [1], -1 °C. Consider CCDC186 (UniProt Q7Z3E2), for which the melting temperature shift under setting [2] is -1.25 °C. For EIF4E2 (UniProt O60573), the melting temperature shift is, setting by setting: under setting [2], 0.0398 °C; under setting [1], -0.53 °C. The like results for FGF2 (UniProt P09038) were, in that order, -0.94 °C and -1.94 °C. Take TOM1L2 (UniProt Q6ZVM7): the melting temperature shift runs as follows: under setting [2], -0.323 °C; under setting [1], -0.0488 °C.

For the target UniProt Q14106, the melting temperature shift reads like this: under setting [2], -0.999 °C; under setting [1], 3.12 °C. With UniProt P03886, the melting temperature shift runs as follows: under setting [2], 0.444 °C; under setting [1], 0.15 °C.

Consider UniProt Q9NY87, for which the melting temperature shift came out at 0.448 °C under setting [2] and 2.37 °C under setting [1].

In the case of UniProt P78382, the melting temperature shift under setting [1] was 2.51 °C. For the target RAN (UniProt P62826), the melting temperature shift was -0.428 °C under setting [2] and -0.476 °C under setting [1]. WNT5A (UniProt P41221): the melting temperature shift runs as follows: under setting [2], -0.949 °C; under setting [1], -0.902 °C. As for ERI1 (UniProt Q8IV48), the melting temperature shift by setting is: under setting [2], -0.382 °C; under setting [1], -0.717 °C. CDYL (UniProt Q9Y232): the melting temperature shift was -0.0958 °C under setting [2] and 1.39 °C under setting [1]. In the case of UniProt Q9P0M6, the melting temperature shift turned out to be 1.72 °C under setting [2] and 0.485 °C under setting [1]. In the case of ASF1B (UniProt Q9NVP2), the melting temperature shift reads like this: under setting [2], -0.191 °C; under setting [1], 1.71 °C. Consider EI24 (UniProt O14681), for which the melting temperature shift under setting [2] is -0.429 °C and the melting temperature shift under setting [1] is -4.54 °C. For the target UniProt Q9UDR5, the melting temperature shift reads like this: under setting [2], 0.711 °C; under setting [1], -0.138 °C.

On to MED23 (UniProt Q9ULK4), for which the melting temperature shift reads like this: under setting [2], 0.507 °C; under setting [1], 0.387 °C. Turning to RPL15 (UniProt P61313), the melting temperature shift under setting [2] is 0.248 °C and the melting temperature shift under setting [1] was -0.184 °C. With DTL (UniProt Q9NZJ0), the melting temperature shift under setting [1] was 0.709 °C. For POP4 (UniProt O95707), under setting [2], the melting temperature shift was -0.653 °C. Take CDK4 (UniProt P11802): the melting temperature shift under setting [2] is -1.26 °C and the melting temperature shift under setting [1] was found to be 0.784 °C.
